Data: publication doi:10.1101/215160
No constants are given. Whether binding was seen depends on the method and setting. In cells and extracts the contact can be indirect. Some binding calls cover weakened binding; strength is not graded here. Sequences can lack the tags named with a protein.

Sequences of proteins named here, by UniProt entry; tags and fusion partners are left off.
UniProt Q15436: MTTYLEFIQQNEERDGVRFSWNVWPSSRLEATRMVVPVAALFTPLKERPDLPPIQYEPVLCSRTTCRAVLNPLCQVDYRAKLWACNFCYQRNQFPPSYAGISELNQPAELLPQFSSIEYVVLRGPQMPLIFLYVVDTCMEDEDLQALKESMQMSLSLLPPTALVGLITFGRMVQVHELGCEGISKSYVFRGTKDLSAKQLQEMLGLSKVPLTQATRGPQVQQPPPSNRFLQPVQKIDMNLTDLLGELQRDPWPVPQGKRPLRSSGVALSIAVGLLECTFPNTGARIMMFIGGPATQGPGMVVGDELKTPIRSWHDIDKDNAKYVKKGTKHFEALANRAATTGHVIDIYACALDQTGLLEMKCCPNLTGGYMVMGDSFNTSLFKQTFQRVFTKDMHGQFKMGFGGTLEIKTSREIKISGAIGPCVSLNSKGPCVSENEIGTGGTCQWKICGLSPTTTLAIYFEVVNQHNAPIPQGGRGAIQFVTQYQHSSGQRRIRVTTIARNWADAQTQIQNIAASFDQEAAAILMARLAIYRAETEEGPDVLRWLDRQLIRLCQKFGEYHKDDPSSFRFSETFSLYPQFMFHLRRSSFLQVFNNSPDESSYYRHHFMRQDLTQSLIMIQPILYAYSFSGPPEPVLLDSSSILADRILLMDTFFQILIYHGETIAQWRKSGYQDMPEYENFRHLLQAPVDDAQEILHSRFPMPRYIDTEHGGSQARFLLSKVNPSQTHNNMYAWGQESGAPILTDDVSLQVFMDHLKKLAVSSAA
UniProt Q15437: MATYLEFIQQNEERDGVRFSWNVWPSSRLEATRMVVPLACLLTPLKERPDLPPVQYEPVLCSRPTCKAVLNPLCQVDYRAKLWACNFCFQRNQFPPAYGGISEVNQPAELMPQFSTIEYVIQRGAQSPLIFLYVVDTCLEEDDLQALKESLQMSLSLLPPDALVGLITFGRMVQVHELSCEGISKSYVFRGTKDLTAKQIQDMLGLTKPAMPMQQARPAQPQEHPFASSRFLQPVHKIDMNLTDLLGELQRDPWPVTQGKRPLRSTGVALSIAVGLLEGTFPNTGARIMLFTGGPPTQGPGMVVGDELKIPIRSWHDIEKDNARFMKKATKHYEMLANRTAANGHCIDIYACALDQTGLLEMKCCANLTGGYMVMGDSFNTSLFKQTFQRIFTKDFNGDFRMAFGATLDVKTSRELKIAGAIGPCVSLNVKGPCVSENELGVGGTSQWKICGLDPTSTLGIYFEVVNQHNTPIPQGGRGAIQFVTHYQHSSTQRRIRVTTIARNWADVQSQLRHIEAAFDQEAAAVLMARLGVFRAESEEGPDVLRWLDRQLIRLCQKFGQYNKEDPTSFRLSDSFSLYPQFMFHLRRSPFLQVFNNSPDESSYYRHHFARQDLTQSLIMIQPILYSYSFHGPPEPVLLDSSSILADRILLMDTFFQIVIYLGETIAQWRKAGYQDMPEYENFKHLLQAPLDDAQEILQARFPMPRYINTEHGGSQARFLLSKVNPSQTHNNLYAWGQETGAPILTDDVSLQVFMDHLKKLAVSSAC

Columns and labels:
[1] = target: FLAG-tagged SEC23A (not stated (human or mouse cDNA cloned)) (UniProt Q15436); assay: co-IP
[2] = target: FLAG-tagged SEC23B (not stated (human or mouse cDNA cloned)) (UniProt Q15437); assay: co-IP

Binder | binding [1] | binding [2]
RFP-tagged SEC24B (protein, UniProt O95487 1-1268) MSAPAGSSHPAASARIPPKFGGAAVSGAAAPAGPGAGPAPHQQNGPAQNQMQVPSGYGLHHQNYIAPSGHYSQGPGKMTSLPLDTQCGDYYSALYTVPTQNVTPNTVNQQPGAQQLYSRGPPAPHIVGSTLGSFQGAASSASHLHTSASQPYSSFVNHYNSPAMYSASSSVASQGFPSTCGHYAMSTVSNAAYPSVSYPSLPAGDTYGQMFTSQNAPTVRPVKDNSFSGQNTAISHPSPLPPLPSQQHHQQQSLSGYSTLTWSSPGLPSTQDNLIRNHTGSLAVANNNPTITVADSLSCPVMQNVQPPKSSPVVSTVLSGSSGSSSTRTPPTANHPVEPVTSVTQPSELLQQKGVQYGEYVNNQASSAPTPLSSTSDDEEEEEEDEEAGVDSSSTTSSASPMPNSYDALEGGSYPDMLSSSASSPAPDPAPEPDPASAPAPASAPAPVVPQPSKMAKPFGYGYPTLQPGYQNATAPLISGVQPSNPVYSGFQQYPQQYPGVNQLSSSIGGLSLQSSPQPESLRPVNLTQERNILPMTPVWAPVPNLNADLKKLNCSPDSFRCTLTNIPQTQALLNKAKLPLGLLLHPFRDLTQLPVITSNTIVRCRSCRTYINPFVSFIDQRRWKCNLCYRVNDVPEEFMYNPLTRSYGEPHKRPEVQNSTVEFIASSDYMLRPPQPAVYLFVLDVSHNAVEAGYLTILCQSLLENLDKLPGDSRTRIGFMTFDSTIHFYNLQEGLSQPQMLIVSDIDDVFLPTPDSLLVNLYESKELIKDLLNALPNMFTNTRETHSALGPALQAAFKLMSPTGGRVSVFQTQLPSLGAGLLQSREDPNQRSSTKVVQHLGPATDFYKKLALDCSGQQTAVDLFLLSSQYSDLASLACMSKYSAGCIYYYPSFHYTHNPSQAEKLQKDLKRYLTRKIGFEAVMRIRCTKGLSMHTFHGNFFVRSTDLLSLANINPDAGFAVQLSIEESLTDTSLVCFQTALLYTSSKGERRIRVHTLCLPVVSSLADVYAGVDVQAAICLLANMAVDRSVSSSLSDARDALVNAVVDSLSAYGSTVSNLQHSALMAPSSLKLFPLYVLALLKQKAFRTGTSTRLDDRVYAMCQIKSQPLVHLMKMIHPNLYRIDRLTDEGAVHVNDRIVPQPPLQKLSAEKLTREGAFLMDCGSVFYIWVGKGCDNNFIEDVLGYTNFASIPQKMTHLPELDTLSSERARSFITWLRDSRPLSPILHIVKDESPAKAEFFQHLIEDRTEAAFSYYEFLLHVQQQICK | binds | binds
RFP-tagged SEC24A (protein, UniProt O95486 1-1093) MSQPGIPASGGAPASLQAQNGAALASGSPYTNGPVQNALLSSQESVSQGYNFQLPGSYPHPIPAKTLNPVSGQSNYGGSQGSGQTLNRPPVASNPVTPSLHSGPAPRMPLPASQNPATTPMPSSSFLPEANLPPPLNWQYNYPSTASQTNHCPRASSQPTVSGNTSLTTNHQYVSSGYPSLQNSFIKSGPSVPPLVNPPLPTTFQPGAPHGPPPAGGPPPVRALTPLTSSYRDVPQPLFNSAVNQEGITSNTNNGSMVVHSSYDEIEGGGLLATPQLTNKNPKMSRSVGYSYPSLPPGYQNTTPPGATGVPPSSLNYPSGPQAFTQTPLGANHLTTSMSGLSLQPEGLRVVNLLQERNMLPSTPLKPPVPNLHEDIQKLNCNPELFRCTLTSIPQTQALLNKAKLPLGLLLHPFKDLVQLPVVTSSTIVRCRSCRTYINPFVSFLDQRRWKCNLCYRVNDVPEEFLYNPLTRVYGEPHRRPEVQNATIEFMAPSEYMLRPPQPPVYLFVFDVSHNAVETGYLNSVCQSLLDNLDLLPGNTRTKIGFITFDSTIHFYGLQESLSQPQMLIVSDIEDVFIPMPENLLVNLNESKELVQDLLKTLPQMFTKTLETQSALGPALQAAFKLMSPTGGRMSVFQTQLPTLGVGALKPREEPNHRSSAKDIHMTPSTDFYKKLALDCSGQQVAVDLFLLSGQYSDLASLGCISRYSAGSVYYYPSYHHQHNPVQVQKLQKELQRYLTRKIGFEAVMRIRCTKGLSIHTFHGNFFVRSTDLLSLPNVNPDAGYAVQMSVEESLTDTQLVSFQSALLYTSSKGERRIRVHTLCLPVVSTLNDVFLGADVQAISGLLANMAVDRSMTASLSDARDALVNAVIDSLSAYRSSVLSNQQPGLMVPFSLRLFPLFVLALLKQKSFQTGTNARLDERIFAMCQVKNQPLVYLMLTTHPSLYRVDNLSDEGALNISDRTIPQPPILQLSVEKLSRDGAFLMDAGSVLMLWVGKNCTQNFLSQVLGVQNYASIPQPMTDLPELDTPESARIIAFISWLREQRPFFPILYVIRDESPMKANFLQNMIEDRTESALSYYEFLLHIQQQVNK |  | binds
